## Results of single-concentration screens

Measurements from “University of Dundee, Small-Polar-MMV Screening Library” (2021), ChEMBL document CHEMBL3988442.

Mtb glucose medium: 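Phenotypic screen: M. tuberculosis growth, glucose 7H9 medium, 3 days; the read-out is not stated. Concentration: 500 µM. Direction is inferred from retests: higher values go with more growth inhibition. Of about 18,000 compounds tested this way, about 1,400 (7.9%) reached 50% or more in at least one test.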
Mtb cholesterol medium: 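Whole-cell growth test on Mycobacterium tuberculosis, read after 4 days in a medium based on cholesterol and the lipid DPPC; the read-out is not stated. Tested at 500 µM. Direction is inferred from retests: higher values go with more growth inhibition. About 18,000 compounds were tested under these conditions; 5% (about 900) showed 50% or more at least once.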

Values are the deposited “Percent Effect”, in %. The record does not define 0% and 100%; most values in the screen are far below 50% and negative numbers occur (in some assays of this library far below -100). Compounds were drawn at random from those tested, without regard to their results.

Cc1cc(CN(C)C(=O)c2scnc2C)no1 read Mtb glucose medium: 11.82%; Mtb cholesterol medium: 4.092%.
COc1ccc2c(c1)CCCC2N (centres unmarked) read Mtb glucose medium: -42.75%; Mtb cholesterol medium: -23.61%.
CCn1cc(Br)c(=O)c(NC(=O)Cc2cccnc2)c1 read Mtb glucose medium: -0.3514%; Mtb cholesterol medium: 0.6812%.
c1snnc1CN1CCC(OCC2CCOC2)CC1 (centres unmarked) read Mtb glucose medium: -9.996%; Mtb cholesterol medium: -12.07%.
CN1CCC(NC(=O)c2cc(C(F)(F)F)nn2C)CC1 read Mtb glucose medium: 23.81%; Mtb cholesterol medium: 16.73%.
Cc1nnc(SCC(=O)NCC(C)C)s1 read Mtb glucose medium: 16.04%; Mtb cholesterol medium: 11.78%.
CC(C)NC(=O)C(C)NC(=O)C1CCC1 (centres unmarked) read Mtb glucose medium: 6.718%; Mtb cholesterol medium: -3.142%.
CSCCN(C)Cc1cccc(OCC(N)=O)c1 read Mtb glucose medium: 10.1%; Mtb cholesterol medium: 38.53%.
CC(C)n1nccc1NC(=O)CN(C)Cc1ccco1 read Mtb glucose medium: 29.91%; Mtb cholesterol medium: 6.844%.
CN(C)c1ncccc1CNC(=O)N1CCCC1 read Mtb glucose medium: 9.172%; Mtb cholesterol medium: -1.249%.
CC(C)C(=O)Nc1ccccc1-n1cncn1 read Mtb glucose medium: 12.08%; Mtb cholesterol medium: -5.927%.
Cc1ccc(CNc2nnnn2CCO)cc1 read Mtb glucose medium: 21.23%; Mtb cholesterol medium: 6.192%.
CN(CCn1cccn1)C(=O)CCc1ccnn1C read Mtb glucose medium: 5.264%; Mtb cholesterol medium: -2.883%.
Cc1cccc(CNC(=O)C2=COCCO2)c1Br read Mtb glucose medium: 34.87%; Mtb cholesterol medium: -21.79%.
CC(C)CNS(=O)(=O)c1ccc(NS(C)(=O)=O)cc1 read Mtb glucose medium: 16.61%; Mtb cholesterol medium: -12.69%.
OCCOc1ccc(NCc2sccc2Cl)cn1 read Mtb glucose medium: -52.19%; Mtb cholesterol medium: -19.91%.
Cc1ccccc1CS(=O)(=O)Cc1nsc(N(C)C)n1 read Mtb glucose medium: 4.636%; Mtb cholesterol medium: -3.311%.
Cc1ccc(C)c(CC(=O)N2CCCNCC2)c1 read Mtb glucose medium: 43.61%; Mtb cholesterol medium: 17.47%.
CC(C)OCCN1CCN(C(=O)c2cc[nH]n2)CC1 read Mtb glucose medium: -8.006%; Mtb cholesterol medium: -5.51%.
CC(=O)Nc1ccc(-n2cncn2)nc1 read Mtb glucose medium: 9.29%; Mtb cholesterol medium: -3.705%.
CC(=O)Nc1ccc2c(c1)C(=O)N(C(C)C)C2=O read Mtb glucose medium: -8.419%; Mtb cholesterol medium: -10.71%.
OC[C@@H]1CNC[C@H]1C1CCN(C2CNC2)CC1 read Mtb glucose medium: -7.857%; Mtb cholesterol medium: -24.1%.
CCn1ncc(C(C)N)c1C (centres unmarked) read Mtb glucose medium: -0.08521%; Mtb cholesterol medium: 14.2%.
OCC1CCC2(CCN2)CC1 (centres unmarked) read Mtb glucose medium: 13.77%; Mtb cholesterol medium: -0.03622%.
NC(=O)c1cnc(N2CC(CO)C2)c(Cl)c1 read Mtb glucose medium: 5.095%; Mtb cholesterol medium: 2.119%.
Cc1n[nH]c(C)c1S(=O)(=O)N(C)CC(=O)NC1CC1 read Mtb glucose medium: 15.2%; Mtb cholesterol medium: 5.72%.
O=C(CCCc1cn[nH]c1)N1CCc2ccccc2C1 read Mtb glucose medium: 1.88%; Mtb cholesterol medium: -0.4472%.
Cc1nc(CN(C)C(=O)C2CCN(C(C)C)CC2)no1 read Mtb glucose medium: -4.505%; Mtb cholesterol medium: -7.108%.
CC(O)c1c(F)cccc1-n1cncn1 (centres unmarked) read Mtb glucose medium: 6.991%; Mtb cholesterol medium: -3.88%.
CCCn1cc(CNC(=O)c2ccc(=O)[nH]c2)cn1 read Mtb glucose medium: -7.975%; Mtb cholesterol medium: -5.765%.
O=C(c1cccnc1)N1CCC(N2CC=CC2)CC1 read Mtb glucose medium: 33.64%; Mtb cholesterol medium: 24.02%.
Cc1cc(=O)[nH]c(C2(N)CCCC2)n1 read Mtb glucose medium: 11.52%; Mtb cholesterol medium: -2.848%.

The first 3 entries again:

Cc1cc(CN(C)C(=O)c2scnc2C)no1 gave Mtb glucose medium: 11.82%; Mtb cholesterol medium: 4.092%.
COc1ccc2c(c1)CCCC2N (centres unmarked) gave Mtb glucose medium: -42.75%; Mtb cholesterol medium: -23.61%.
CCn1cc(Br)c(=O)c(NC(=O)Cc2cccnc2)c1 gave Mtb glucose medium: -0.3514%; Mtb cholesterol medium: 0.6812%.